Test results from the supplement of paper PMC10849652.
This is one part of the list.

Amino acid sequences for entries named in this document (tags omitted). A change or cut given only in a name is not applied to a line headed by its entry.
UniProt Q8TDP1: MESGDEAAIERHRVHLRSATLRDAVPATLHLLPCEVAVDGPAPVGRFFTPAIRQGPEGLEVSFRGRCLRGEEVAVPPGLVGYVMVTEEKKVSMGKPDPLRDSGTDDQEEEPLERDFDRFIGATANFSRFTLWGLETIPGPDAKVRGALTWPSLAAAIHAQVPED
UniProt Q8ND24: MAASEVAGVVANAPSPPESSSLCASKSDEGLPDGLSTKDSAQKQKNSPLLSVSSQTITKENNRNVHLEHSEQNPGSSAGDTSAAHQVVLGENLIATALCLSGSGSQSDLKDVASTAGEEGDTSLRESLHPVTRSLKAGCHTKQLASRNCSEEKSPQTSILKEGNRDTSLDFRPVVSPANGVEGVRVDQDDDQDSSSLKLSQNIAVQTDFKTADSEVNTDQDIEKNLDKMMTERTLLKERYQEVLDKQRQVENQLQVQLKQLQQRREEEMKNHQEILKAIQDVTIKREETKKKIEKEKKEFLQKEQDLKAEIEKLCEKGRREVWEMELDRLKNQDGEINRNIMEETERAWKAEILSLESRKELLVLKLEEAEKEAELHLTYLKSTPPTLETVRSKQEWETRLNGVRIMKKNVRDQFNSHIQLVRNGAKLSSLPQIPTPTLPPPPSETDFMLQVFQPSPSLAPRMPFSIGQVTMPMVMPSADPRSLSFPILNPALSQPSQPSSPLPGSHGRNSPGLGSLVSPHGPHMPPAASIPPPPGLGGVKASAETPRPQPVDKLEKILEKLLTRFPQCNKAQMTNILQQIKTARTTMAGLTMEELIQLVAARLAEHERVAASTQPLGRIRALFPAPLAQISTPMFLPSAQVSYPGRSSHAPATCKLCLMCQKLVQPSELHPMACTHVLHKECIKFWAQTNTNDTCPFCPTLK
UniProt Q96NA2: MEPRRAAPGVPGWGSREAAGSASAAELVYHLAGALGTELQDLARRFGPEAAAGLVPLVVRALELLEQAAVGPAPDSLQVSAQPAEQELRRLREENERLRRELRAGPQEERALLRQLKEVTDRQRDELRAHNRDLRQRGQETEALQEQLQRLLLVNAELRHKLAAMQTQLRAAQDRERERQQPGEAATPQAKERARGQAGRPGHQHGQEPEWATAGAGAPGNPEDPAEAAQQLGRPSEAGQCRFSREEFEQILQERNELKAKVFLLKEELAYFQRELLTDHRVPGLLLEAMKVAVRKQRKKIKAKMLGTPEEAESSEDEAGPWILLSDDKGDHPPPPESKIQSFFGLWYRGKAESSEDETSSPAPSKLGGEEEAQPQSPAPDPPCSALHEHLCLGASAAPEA
UniProt Q969K3: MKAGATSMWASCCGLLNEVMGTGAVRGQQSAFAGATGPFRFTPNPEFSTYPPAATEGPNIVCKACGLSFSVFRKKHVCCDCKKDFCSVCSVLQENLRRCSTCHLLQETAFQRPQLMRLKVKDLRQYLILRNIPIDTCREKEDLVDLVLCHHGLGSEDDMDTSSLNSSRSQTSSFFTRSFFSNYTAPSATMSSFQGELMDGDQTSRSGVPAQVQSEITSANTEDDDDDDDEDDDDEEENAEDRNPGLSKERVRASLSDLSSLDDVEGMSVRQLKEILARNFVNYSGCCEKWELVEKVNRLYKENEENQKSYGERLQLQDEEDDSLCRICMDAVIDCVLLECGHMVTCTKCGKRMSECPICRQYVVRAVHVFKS
UniProt P35244: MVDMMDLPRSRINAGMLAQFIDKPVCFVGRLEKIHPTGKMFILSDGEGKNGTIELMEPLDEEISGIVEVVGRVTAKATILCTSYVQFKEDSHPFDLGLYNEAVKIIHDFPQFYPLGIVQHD
UniProt Q5TBB1: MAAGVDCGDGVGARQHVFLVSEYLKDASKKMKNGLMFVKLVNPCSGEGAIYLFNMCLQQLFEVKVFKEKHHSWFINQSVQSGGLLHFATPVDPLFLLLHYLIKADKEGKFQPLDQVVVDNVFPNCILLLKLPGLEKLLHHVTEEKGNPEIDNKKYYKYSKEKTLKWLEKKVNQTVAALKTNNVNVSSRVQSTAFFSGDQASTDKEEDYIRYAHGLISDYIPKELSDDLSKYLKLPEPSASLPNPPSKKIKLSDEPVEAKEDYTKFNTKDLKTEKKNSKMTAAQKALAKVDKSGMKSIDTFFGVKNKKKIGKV
UniProt Q13464: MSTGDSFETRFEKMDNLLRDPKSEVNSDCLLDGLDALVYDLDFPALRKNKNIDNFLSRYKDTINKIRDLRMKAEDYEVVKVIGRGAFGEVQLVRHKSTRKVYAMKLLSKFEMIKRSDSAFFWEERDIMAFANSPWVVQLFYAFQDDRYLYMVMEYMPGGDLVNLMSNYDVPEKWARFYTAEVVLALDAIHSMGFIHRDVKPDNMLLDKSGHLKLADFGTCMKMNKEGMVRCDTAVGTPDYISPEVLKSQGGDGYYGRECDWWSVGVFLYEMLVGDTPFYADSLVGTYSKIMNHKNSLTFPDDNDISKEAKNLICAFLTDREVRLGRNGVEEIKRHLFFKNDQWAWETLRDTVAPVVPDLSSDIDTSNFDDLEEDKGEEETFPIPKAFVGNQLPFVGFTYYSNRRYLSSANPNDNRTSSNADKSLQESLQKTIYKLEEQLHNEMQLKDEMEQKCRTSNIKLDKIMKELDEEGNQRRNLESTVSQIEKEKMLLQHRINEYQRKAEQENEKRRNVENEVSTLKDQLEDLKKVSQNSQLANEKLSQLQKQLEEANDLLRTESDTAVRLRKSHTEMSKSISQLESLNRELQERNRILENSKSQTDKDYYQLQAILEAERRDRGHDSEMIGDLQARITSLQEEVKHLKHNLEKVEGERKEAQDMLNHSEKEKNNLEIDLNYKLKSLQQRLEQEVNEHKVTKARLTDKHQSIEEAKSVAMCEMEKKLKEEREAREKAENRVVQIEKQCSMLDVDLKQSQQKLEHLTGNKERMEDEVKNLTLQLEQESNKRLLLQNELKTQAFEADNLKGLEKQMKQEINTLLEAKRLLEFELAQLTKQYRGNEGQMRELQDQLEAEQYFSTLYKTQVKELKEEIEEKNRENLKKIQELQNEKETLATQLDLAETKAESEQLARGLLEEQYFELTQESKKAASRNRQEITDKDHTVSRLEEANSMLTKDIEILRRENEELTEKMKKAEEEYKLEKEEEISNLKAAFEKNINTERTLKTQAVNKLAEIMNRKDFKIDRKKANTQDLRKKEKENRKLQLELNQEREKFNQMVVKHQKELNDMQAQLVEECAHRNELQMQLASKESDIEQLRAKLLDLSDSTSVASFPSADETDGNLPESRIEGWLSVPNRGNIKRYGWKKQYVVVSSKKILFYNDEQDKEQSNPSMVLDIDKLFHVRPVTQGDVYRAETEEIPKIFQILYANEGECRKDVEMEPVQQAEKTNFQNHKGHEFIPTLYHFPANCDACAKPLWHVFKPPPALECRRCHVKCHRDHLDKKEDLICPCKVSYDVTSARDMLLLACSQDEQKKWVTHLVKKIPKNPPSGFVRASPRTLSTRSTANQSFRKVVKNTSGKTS
UniProt Q9BV68: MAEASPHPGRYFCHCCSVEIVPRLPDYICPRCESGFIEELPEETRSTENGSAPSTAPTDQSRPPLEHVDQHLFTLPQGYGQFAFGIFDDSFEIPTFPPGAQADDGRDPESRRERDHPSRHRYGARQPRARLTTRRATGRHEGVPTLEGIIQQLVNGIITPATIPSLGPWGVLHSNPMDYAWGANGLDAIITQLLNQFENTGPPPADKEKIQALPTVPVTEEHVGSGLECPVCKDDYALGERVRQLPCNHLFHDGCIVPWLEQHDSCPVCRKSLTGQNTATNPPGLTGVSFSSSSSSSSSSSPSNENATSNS
UniProt Q9UBF6, whole entry, looked up: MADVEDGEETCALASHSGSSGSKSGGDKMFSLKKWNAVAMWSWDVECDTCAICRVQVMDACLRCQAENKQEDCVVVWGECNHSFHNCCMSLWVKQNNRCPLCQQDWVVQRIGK
UniProt Q05823: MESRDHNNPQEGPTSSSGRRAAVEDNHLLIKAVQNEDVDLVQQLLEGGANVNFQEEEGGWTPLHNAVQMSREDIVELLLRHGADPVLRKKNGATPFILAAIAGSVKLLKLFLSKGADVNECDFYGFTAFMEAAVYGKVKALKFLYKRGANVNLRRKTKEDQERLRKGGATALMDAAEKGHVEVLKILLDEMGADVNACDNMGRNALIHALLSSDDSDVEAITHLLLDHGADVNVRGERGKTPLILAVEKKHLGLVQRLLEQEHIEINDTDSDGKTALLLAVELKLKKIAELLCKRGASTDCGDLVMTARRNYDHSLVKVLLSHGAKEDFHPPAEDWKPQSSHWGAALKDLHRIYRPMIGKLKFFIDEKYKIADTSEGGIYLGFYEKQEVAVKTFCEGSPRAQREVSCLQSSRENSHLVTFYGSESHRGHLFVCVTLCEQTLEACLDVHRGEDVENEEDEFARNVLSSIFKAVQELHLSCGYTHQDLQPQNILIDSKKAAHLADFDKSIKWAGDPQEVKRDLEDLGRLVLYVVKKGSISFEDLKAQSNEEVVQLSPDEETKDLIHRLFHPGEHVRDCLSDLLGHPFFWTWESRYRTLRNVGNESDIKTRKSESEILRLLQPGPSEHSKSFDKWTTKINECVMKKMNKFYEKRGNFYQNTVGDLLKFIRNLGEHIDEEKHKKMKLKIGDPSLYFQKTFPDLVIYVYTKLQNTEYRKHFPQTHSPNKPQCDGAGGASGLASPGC
UniProt Q96AT9: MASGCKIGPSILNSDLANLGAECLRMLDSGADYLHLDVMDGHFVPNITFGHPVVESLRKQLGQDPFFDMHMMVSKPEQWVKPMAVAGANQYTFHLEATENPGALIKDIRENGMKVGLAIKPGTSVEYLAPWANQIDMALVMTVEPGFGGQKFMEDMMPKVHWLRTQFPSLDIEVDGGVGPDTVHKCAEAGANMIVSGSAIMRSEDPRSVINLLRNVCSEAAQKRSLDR
UniProt Q9H6T3, whole entry, looked up: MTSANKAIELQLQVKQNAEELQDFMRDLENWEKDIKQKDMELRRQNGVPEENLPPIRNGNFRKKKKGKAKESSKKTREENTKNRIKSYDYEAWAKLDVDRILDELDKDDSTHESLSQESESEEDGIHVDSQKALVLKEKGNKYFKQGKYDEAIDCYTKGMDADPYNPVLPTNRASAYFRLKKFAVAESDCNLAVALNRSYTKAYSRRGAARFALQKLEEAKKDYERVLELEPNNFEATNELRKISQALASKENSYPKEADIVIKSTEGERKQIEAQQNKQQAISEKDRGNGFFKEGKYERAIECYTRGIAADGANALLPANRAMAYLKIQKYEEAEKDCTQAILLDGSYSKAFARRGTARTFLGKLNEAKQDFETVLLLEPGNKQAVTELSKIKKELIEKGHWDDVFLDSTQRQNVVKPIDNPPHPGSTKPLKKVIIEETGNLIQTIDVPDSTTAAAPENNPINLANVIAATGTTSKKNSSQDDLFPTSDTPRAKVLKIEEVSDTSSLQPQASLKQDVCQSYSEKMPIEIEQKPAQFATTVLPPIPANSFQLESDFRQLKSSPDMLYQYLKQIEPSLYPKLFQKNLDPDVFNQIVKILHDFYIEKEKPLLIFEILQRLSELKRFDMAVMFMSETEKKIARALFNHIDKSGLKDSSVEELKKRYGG
UniProt O14730: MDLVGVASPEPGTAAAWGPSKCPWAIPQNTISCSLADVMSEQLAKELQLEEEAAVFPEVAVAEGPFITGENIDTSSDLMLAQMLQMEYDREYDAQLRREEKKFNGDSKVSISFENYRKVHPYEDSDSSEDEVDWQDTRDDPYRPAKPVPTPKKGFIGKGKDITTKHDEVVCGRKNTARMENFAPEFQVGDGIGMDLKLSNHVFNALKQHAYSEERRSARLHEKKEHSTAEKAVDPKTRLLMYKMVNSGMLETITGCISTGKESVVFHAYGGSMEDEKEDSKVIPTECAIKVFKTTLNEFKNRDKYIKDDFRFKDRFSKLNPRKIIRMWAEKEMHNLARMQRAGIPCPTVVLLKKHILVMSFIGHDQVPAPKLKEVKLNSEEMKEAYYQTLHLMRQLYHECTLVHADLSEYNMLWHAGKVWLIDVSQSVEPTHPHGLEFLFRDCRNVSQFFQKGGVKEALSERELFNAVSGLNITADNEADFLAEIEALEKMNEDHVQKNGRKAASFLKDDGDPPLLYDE
UniProt Q06587: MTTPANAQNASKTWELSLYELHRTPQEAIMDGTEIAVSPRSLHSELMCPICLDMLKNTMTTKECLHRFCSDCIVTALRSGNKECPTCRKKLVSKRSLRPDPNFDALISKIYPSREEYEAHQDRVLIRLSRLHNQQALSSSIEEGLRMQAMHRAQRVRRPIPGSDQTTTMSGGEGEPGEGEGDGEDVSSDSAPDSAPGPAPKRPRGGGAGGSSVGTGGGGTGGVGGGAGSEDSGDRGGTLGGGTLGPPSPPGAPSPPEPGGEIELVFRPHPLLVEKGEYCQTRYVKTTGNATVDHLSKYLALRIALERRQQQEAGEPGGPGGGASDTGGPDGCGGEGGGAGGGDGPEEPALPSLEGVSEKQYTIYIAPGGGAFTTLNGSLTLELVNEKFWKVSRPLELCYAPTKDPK

Key:
Assay in all cases: log2 fold change, soluble protein after heating vs DMSO (PISA); higher = thermal stabilisation; K562 lysate, 10 uM; active = over 0.2 and 3.5 SD of the protein, either way, in both replicates (recomputed)
ibrutinib = compound: C=CC(=O)N1CCC[C@@H](n2nc(-c3ccc(Oc4ccccc4)cc3)c3c(N)ncnc32)C1 [ibrutinib]
Outline: (§1)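 Values give the log-two fold change in thermal stability against solvent controls, from duplicates. Crude K562 extract at 1 mg/mL protein, made by dounce homogenisation in PBS pH 7.4 with 1 mM MgCl2, was treated with 10 μM compound for 30 min. After 3 min heating across 48°C-58°C, aliquots were pooled, adjusted to 0.5% NP-40 at 4°C and centrifuged at 21,000xg for 90 min. The supernatant was measured by TMTpro 16plex LC-MS/MS with channel sums equalised.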

[1] = compound: CC(=O)c1cnc2ccc(-c3cc(Cl)c(O)c(Cl)c3)nc2c1N[C@H]1CC[C@H](CN(C)C)CC1
Outline: as §1

ralimetinib = compound: CC(C)(C)Cn1c(N)nc2ccc(-c3[nH]c(C(C)(C)C)nc3-c3ccc(F)cc3)nc21 [ralimetinib]
Outline: as §1

[2] = compound: CC(C)(O)CC(=O)NCCn1ccc2ncnc(Nc3ccc(Oc4cccc(C(F)(F)F)c4)c(Cl)c3)c21
Outline: as §1

[3] = compound: CC(C)C1=C2N=C(C=C(N2N=C1)NCC3=CC=CC=C3)NCCCCCCN
Outline: as §1

[4] = compound: CC1=C(C(CC(=O)N1)C2=CC=C(C=C2)C(F)(F)F)C(=O)NC3=C(C=C4C(=C3)C=NN4)F
Outline: as §1

[5] = compound: CC1=C(C2=C(C=C1)C(=O)C3=CC=CC=C3N2CCCN)C
Outline: as §1

[6] = compound: CC1=C(C=C(C=C1)NC(=O)C2=CC(=CC=C2)C(C)(C)C#N)NC3=CC4=C(C=C3)N=CN(C4=O)C
Outline: as §1

[7] = compound: CC1=C(C=C(C=C1)NC(=O)C2=CC(=CC=C2)N(C)C)NC(=O)C3=CC=C(C=C3)O
Outline: as §1

[8] = compound: CC1=CC=C(C=C1)SC2=C3C=C(SC3=CN=C2)C(=O)N
Outline: as §1

Measured: log2 fold change

RNASEH2C (UniProt Q8TDP1)
inactive: ibrutinib 0.015 | [1] 0.018 | ralimetinib 0.072 | [2] 0.056 | [3] -0.062 | [4] -0.038 | [5] 0.023 | [6] 0.007 | [7] 0.011 | [8] 0.008

RNF213, A0A0A0MTC1
inactive: ibrutinib 0.015 | [1] 0.006 | ralimetinib -0.001 | [2] -0.014 | [3] 0.007 | [4] 0.014 | [5] 0.008 | [6] 0.014 | [7] 0.042 | [8] 0.022

RNF214 (UniProt Q8ND24)
inactive: ibrutinib 0.042 | [1] -0.009 | ralimetinib 0.011 | [2] -0.022 | [3] -0.005 | [4] 0.045 | [5] 0.021 | [6] -0.013 | [7] -0.021 | [8] -0.028

RILP (UniProt Q96NA2)
inactive: ibrutinib 0.034 | [1] 0.044 | ralimetinib 0.013 | [2] 0.026 | [3] -0.001 | [4] 0.032 | [5] 0.021 | [6] -0.004 | [7] 0.013 | [8] -0.015

RIC8B isoform 1 (UniProt Q9NVN3)
inactive: ibrutinib -0.018 | [1] 0.005 | ralimetinib 0.037 | [2] -0.099 | [3] -0.029 | [4] 0.04 | [5] -0.154 | [6] -0.012 | [7] 0.026 | [8] 0.016

RNF34 isoform 2 (UniProt Q969K3)
inactive: ibrutinib 0.072 | [1] 0.008 | ralimetinib 0.08 | [2] -0.003 | [3] 0 | [4] -0.099 | [5] -0.011 | [6] 0.123 | [7] 0.107 | [8] 0.026

RPA3 (UniProt P35244)
inactive: ibrutinib 0.043 | [1] -0.038 | ralimetinib -0.009 | [2] -0.01 | [3] -0.001 | [4] -0.035 | [5] 0.038 | [6] -0.033 | [7] -0.01 | [8] 0.011

RPL23A (UniProt P62750)
inactive: ibrutinib -0.025 | [1] -0.009 | ralimetinib 0.004 | [2] -0.006 | [3] 0.051 | [4] -0.045 | [5] -0.017 | [6] -0.027 | [7] -0.007 | [8] 0.035

RNF123 (UniProt Q5XPI4)
inactive: ibrutinib 0.028 | [1] 0.017 | ralimetinib 0.029 | [2] -0.042 | [3] -0.003 | [4] -0.02 | [5] 0.001 | [6] 0.027 | [7] -0.016 | [8] 0.022

RPL3 (UniProt P39023)
inactive: ibrutinib 0.006 | [1] 0.018 | ralimetinib 0.004 | [2] 0.02 | [3] -0.011 | [4] -0.014 | [5] -0.009 | [6] -0.051 | [7] 0.008 | [8] 0.041

RNASEH2B (UniProt Q5TBB1)
inactive: ibrutinib -0.001 | [1] -0.032 | ralimetinib 0.026 | [2] 0 | [3] 0.031 | [4] -0.025 | [5] 0.024 | [6] 0.005 | [7] 0.025 | [8] 0.009

ROCK1 (UniProt Q13464)
inactive: ibrutinib -0.002 | [1] -0.027 | ralimetinib -0.005 | [2] -0.021 | [3] -0.003 | [4] 0.096 | [5] -0.041 | [6] 0.006 | [7] 0.024 | [8] 0.002

RNF126 (UniProt Q9BV68)
inactive: ibrutinib -0.033 | [1] 0.039 | ralimetinib -0.003 | [2] -0.089 | [3] 0.154 | [4] -0.029 | [5] -0.023 | [6] 0.149 | [7] -0.05 | [8] -0.076

RPA1 (UniProt P27694)
inactive: ibrutinib 0.015 | [1] -0.028 | ralimetinib 0.012 | [2] -0.032 | [3] -0.01 | [4] -0.011 | [5] 0.007 | [6] 0.012 | [7] 0.007 | [8] -0.02

RPL29 (UniProt P47914)
inactive: ibrutinib 0.011 | [1] -0.03 | ralimetinib 0.008 | [2] 0.041 | [3] -0.004 | [4] -0.012 | [5] 0.125 | [6] -0.005 | [7] -0.082 | [8] 0.001

Quoted from the results shown (2 entries):
RNASEH2B (UniProt Q5TBB1)
inactive: ibrutinib -0.001 | [1] -0.032 | ralimetinib 0.026 | [2] 0 | [3] 0.031 | [4] -0.025 | [5] 0.024 | [6] 0.005 | [7] 0.025 | [8] 0.009

ROCK1 (UniProt Q13464)
inactive: ibrutinib -0.002 | [1] -0.027 | ralimetinib -0.005 | [2] -0.021 | [3] -0.003 | [4] 0.096 | [5] -0.041 | [6] 0.006 | [7] 0.024 | [8] 0.002

The results go on:

RNF7 (UniProt Q9UBF6)
inactive: ibrutinib 0.061 | [1] 0.029 | ralimetinib 0.006 | [2] -0.069 | [3] -0.046 | [4] 0.035 | [5] -0.036 | [6] 0.075 | [7] 0.039 | [8] 0.002

RNASEL (UniProt Q05823)
inactive: ibrutinib -0.072 | [1] -0.033 | ralimetinib 0.037 | [2] -0.034 | [3] 0 | [4] -0.023 | [5] 0.001 | [6] 0.01 | [7] 0.013 | [8] 0.027

RPE (UniProt Q96AT9)
inactive: ibrutinib -0.186 | [1] -0.027 | ralimetinib 0.007 | [2] -0.042 | [3] -0.015 | [4] -0.015 | [5] -0.019 | [6] 0.022 | [7] -0.004 | [8] 0.084

RPL36A (UniProt P83881)
inactive: ibrutinib -0.129 | [1] -0.034 | ralimetinib -0.009 | [2] -0.039 | [3] 0.05 | [4] -0.062 | [5] 0.003 | [6] 0.083 | [7] 0.056 | [8] 0.024

RPAP3 (UniProt Q9H6T3)
inactive: ibrutinib 0.011 | [1] 0.008 | ralimetinib -0.007 | [2] 0.016 | [3] -0.003 | [4] -0.012 | [5] 0.007 | [6] 0.003 | [7] 0.015 | [8] -0.006

RPL12 (UniProt P30050)
inactive: ibrutinib -0.035 | [1] 0.004 | ralimetinib -0.021 | [2] -0.074 | [3] 0.042 | [4] -0.051 | [5] 0.004 | [6] 0.045 | [7] 0.006 | [8] 0.038

RPAIN isoform 8 (UniProt Q86UA6)
inactive: ibrutinib 0.065

RPL27 (UniProt P61353)
inactive: ibrutinib 0.037 | [1] -0.014 | ralimetinib -0.025 | [2] -0.018 | [3] -0.01 | [4] -0.067 | [5] -0.051 | [6] 0 | [7] -0.01 | [8] 0.014

ROR2 (UniProt Q01974)
inactive: ibrutinib 0.034 | [1] -0.085 | ralimetinib 0.036 | [2] 0.024 | [3] -0.023 | [4] 0.084 | [5] 0.048 | [6] 0.114 | [7] 0.004 | [8] -0.022

RIOK3 (UniProt O14730)
inactive: ibrutinib -0.021 | [1] -0.013 | ralimetinib 0.055 | [2] 0 | [3] 0.054 | [4] -0.011 | [5] -0.023 | [6] 0.001 | [7] 0.011 | [8] -0.093

RPL31 (UniProt P62899)
inactive: ibrutinib -0.031 | [1] -0.011 | ralimetinib 0.009 | [2] -0.022 | [3] 0.003 | [4] -0.06 | [5] -0.043 | [6] -0.013 | [7] -0.021 | [8] 0.016

RMDN1 (UniProt Q96DB5)
inactive: ibrutinib 0.018 | [1] 0.001 | ralimetinib 0.013 | [2] -0.021 | [3] -0.01 | [4] -0.025 | [5] 0.034 | [6] -0.002 | [7] -0.006 | [8] 0.001

RNGTT (UniProt O60942)
inactive: ibrutinib -0.158 | [1] -0.012 | ralimetinib 0.053 | [2] 0.041 | [3] -0.083 | [4] -0.014 | [5] -0.007 | [6] -0.018 | [7] 0.039 | [8] 0.006

RPL35A (UniProt P18077)
inactive: ibrutinib -0.038 | [1] -0.023 | ralimetinib -0.027 | [2] -0.026 | [3] 0.021 | [4] -0.053 | [5] -0.067 | [6] -0.009 | [7] 0.032 | [8] 0.045

RING1 (UniProt Q06587)
inactive: ibrutinib 0 | [1] -0.018 | ralimetinib 0.015 | [2] 0.003 | [3] 0.022 | [4] 0.012 | [5] -0.041 | [6] 0 | [7] -0.012 | [8] 0.004
